In article PMC12663635 one finds binding data, which are given here for 2 molecules.

Protein sequences, listed by entry. Tags and fused reporters are not part of them. Residues count along the entry.
UniProt P98161, residues 24-4303: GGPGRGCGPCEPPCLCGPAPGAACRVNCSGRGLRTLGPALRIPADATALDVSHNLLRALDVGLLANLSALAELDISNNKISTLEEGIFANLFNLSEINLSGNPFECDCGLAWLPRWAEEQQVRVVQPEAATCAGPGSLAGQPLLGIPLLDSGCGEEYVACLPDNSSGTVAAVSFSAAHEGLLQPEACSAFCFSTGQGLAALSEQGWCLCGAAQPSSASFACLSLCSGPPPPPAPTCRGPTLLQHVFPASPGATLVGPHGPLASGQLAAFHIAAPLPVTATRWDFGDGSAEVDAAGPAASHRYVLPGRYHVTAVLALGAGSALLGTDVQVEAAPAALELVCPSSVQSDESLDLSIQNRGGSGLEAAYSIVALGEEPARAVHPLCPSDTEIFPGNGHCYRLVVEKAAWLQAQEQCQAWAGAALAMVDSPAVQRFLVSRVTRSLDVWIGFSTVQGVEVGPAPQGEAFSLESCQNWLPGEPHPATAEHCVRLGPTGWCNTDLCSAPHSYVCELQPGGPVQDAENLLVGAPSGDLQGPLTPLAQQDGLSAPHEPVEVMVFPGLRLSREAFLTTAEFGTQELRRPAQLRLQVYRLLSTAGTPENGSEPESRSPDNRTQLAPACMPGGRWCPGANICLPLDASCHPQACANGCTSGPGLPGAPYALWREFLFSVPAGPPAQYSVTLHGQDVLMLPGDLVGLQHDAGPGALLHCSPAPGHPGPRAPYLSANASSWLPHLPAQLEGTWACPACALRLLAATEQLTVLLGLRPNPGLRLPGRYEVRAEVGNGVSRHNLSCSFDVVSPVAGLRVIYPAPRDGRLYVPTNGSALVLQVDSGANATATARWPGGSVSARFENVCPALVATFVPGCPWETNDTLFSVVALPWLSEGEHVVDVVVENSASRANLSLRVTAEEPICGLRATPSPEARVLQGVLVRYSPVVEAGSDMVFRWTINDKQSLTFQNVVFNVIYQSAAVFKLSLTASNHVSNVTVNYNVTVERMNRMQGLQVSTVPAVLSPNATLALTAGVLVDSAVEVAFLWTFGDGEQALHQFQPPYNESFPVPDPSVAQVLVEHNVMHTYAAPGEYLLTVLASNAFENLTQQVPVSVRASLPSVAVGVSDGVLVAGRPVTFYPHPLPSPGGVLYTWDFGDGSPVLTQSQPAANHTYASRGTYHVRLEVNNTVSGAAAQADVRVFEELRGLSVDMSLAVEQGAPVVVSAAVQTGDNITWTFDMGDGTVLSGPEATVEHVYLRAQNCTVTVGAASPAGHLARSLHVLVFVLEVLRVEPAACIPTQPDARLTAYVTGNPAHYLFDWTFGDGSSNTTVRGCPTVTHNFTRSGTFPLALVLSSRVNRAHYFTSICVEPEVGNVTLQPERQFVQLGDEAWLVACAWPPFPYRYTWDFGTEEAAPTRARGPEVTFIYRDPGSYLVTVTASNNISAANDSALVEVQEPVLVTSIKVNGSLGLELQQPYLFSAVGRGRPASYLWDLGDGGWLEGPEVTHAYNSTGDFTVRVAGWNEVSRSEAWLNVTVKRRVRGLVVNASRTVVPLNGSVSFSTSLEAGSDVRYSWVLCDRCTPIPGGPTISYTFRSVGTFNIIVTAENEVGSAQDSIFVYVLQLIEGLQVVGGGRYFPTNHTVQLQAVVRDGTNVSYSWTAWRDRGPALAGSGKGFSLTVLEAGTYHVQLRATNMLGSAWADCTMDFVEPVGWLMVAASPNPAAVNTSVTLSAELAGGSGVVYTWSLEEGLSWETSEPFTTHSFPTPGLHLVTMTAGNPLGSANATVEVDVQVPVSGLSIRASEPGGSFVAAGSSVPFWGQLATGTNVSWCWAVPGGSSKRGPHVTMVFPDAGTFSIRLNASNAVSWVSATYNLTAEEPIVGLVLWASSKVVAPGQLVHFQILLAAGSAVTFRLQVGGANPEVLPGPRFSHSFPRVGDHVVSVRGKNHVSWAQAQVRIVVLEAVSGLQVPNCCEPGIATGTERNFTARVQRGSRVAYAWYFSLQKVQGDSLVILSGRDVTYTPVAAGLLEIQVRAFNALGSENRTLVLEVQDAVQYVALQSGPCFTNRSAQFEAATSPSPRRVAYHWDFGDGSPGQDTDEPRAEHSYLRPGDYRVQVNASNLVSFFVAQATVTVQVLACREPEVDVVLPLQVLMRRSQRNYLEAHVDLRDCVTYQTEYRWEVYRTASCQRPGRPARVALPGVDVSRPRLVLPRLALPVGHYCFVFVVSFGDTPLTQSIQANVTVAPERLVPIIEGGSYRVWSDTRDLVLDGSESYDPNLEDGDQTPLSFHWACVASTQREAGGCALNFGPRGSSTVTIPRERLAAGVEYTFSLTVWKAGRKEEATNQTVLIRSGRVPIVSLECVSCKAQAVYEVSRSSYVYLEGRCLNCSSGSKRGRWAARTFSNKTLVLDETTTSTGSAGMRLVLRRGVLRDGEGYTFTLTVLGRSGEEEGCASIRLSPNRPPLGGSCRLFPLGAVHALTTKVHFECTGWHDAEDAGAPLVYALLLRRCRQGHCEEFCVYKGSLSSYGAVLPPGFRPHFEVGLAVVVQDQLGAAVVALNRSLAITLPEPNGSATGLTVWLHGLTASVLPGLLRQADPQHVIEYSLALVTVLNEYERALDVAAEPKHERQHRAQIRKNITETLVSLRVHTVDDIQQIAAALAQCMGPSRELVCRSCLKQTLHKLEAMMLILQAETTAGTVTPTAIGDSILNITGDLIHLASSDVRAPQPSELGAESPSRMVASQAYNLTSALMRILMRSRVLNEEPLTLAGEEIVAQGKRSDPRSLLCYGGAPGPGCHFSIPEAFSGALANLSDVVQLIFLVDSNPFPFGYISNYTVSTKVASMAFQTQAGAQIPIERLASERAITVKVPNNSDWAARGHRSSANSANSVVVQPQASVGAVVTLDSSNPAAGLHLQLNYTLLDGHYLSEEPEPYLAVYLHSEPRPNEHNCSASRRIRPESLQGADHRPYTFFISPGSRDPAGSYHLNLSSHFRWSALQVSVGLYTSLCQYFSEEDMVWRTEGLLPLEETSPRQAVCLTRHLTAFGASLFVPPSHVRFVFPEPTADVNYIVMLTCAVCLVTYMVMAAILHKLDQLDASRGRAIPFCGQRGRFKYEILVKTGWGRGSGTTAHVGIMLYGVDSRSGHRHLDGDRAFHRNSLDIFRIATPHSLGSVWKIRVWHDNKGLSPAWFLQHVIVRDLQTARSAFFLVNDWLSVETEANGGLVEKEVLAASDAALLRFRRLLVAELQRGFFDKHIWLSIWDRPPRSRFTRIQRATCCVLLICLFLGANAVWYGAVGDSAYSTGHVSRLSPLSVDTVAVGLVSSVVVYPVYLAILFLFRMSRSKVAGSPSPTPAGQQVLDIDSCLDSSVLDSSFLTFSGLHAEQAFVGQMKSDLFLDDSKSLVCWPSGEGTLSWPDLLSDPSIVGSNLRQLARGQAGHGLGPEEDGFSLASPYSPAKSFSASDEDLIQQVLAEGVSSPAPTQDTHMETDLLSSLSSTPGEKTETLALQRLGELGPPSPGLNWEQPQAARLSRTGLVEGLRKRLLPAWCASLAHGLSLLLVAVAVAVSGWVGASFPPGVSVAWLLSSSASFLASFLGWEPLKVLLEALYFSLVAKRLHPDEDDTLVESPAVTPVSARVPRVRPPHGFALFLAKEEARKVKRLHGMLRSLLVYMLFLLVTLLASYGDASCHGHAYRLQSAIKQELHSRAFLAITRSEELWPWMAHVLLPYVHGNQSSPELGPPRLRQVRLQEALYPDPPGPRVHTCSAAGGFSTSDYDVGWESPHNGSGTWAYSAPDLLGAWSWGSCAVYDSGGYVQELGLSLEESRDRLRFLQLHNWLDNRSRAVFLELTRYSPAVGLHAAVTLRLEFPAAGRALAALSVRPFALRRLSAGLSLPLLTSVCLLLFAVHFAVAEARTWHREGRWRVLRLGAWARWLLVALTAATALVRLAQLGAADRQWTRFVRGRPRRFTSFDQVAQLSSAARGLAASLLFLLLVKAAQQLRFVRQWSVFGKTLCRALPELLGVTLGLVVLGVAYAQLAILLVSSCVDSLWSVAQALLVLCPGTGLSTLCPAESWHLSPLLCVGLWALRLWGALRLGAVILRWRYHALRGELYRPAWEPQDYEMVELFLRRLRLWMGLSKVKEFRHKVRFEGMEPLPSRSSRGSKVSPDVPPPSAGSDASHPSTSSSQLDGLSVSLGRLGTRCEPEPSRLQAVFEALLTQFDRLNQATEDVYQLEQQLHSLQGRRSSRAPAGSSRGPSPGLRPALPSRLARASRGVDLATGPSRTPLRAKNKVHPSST

The test addresses polycystin-1 (human (endogenous in NHPTK)) (UniProt P98161). The experiment in a line: proximity ligation; Duolink PLA in fixed NHPTK RECs with antibodies to the endogenous proteins; non-starved cells (PC1+ARL13B also in ciliated cells); PLA signal per cell.

Results are given in words; binding and its absence hold for the method and conditions named. Binding seen in cells or lysates may run through a third protein. Some binding calls cover weakened binding; strength is not graded here.

B1: SNAPIN (protein, UniProt O95295 1-136)
chain: MAGAGSAAVSGAGTPVAGPTGRDLFAEGLLEFLRPAVQQLDSHVHAVRESQVELREQIDNLATELCRINEDQKVALDLDPYVKKLLNARRRVVLVNNILQNAQERLRRLNHSVAKETARRRAMLDSGIYPPGSPGK
For B1, the binding entry was “binds”.

B2: BLOC1S1 (protein, UniProt P78537 1-153)
chain: MAPGSRGERSSFRSRRGPGVPSPQPDVTMLSRLLKEHQAKQNERKELQEKRRREAITAATCLTEALVDHLNVGVAQAYMNQRKLDHEVKTLQVQAAQFAKQTGQWIGMVENFNQALKEIGDVENWARSIELDMRTIATALEYVYKGQLQSAPS
Turning to B2, the binding result is “binds”.
